This note sets out measurements from patent US20060142189A1.

Protein sequences, listed by entry. Tags and fused reporters are not part of them. Lines headed by an entry give the natural chain unless they say otherwise; changes in a name come on top. Chains listed by the source or under a name are the forms on record and can include a tag or linker.
UniProt Q05695: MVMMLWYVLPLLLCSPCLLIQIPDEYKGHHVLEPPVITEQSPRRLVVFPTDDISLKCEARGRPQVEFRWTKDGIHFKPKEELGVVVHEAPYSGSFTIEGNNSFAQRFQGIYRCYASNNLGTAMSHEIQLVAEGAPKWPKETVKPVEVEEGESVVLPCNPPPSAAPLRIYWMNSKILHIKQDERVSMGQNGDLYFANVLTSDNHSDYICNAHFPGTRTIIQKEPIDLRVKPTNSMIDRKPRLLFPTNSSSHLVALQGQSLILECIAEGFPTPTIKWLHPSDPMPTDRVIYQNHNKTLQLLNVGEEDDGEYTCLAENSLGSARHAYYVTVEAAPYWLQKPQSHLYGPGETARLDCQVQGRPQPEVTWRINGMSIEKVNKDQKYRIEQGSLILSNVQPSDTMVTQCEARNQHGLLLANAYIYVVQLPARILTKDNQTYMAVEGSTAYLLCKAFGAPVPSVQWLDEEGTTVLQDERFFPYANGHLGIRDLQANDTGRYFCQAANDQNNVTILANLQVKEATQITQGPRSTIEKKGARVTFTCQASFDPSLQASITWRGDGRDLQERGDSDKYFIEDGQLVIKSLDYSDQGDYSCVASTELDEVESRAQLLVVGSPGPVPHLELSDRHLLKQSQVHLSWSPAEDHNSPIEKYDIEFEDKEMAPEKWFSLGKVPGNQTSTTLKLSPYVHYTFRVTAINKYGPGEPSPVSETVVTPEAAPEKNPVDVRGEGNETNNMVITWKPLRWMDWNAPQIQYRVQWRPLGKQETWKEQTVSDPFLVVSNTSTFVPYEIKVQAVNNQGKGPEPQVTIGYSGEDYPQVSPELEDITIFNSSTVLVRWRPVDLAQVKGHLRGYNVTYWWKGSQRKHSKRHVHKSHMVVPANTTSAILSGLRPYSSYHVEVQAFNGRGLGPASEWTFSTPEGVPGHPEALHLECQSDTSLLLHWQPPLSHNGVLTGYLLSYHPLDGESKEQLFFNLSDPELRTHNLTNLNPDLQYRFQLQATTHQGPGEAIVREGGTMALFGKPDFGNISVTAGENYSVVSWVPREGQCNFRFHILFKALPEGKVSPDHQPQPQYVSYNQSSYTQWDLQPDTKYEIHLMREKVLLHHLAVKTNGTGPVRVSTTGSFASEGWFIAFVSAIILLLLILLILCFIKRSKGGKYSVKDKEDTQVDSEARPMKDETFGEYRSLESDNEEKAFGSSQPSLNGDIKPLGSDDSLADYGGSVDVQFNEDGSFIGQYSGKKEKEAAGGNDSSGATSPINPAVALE
ankyrinB (endogenous in human kidney 293 cells) (Q01484, form named): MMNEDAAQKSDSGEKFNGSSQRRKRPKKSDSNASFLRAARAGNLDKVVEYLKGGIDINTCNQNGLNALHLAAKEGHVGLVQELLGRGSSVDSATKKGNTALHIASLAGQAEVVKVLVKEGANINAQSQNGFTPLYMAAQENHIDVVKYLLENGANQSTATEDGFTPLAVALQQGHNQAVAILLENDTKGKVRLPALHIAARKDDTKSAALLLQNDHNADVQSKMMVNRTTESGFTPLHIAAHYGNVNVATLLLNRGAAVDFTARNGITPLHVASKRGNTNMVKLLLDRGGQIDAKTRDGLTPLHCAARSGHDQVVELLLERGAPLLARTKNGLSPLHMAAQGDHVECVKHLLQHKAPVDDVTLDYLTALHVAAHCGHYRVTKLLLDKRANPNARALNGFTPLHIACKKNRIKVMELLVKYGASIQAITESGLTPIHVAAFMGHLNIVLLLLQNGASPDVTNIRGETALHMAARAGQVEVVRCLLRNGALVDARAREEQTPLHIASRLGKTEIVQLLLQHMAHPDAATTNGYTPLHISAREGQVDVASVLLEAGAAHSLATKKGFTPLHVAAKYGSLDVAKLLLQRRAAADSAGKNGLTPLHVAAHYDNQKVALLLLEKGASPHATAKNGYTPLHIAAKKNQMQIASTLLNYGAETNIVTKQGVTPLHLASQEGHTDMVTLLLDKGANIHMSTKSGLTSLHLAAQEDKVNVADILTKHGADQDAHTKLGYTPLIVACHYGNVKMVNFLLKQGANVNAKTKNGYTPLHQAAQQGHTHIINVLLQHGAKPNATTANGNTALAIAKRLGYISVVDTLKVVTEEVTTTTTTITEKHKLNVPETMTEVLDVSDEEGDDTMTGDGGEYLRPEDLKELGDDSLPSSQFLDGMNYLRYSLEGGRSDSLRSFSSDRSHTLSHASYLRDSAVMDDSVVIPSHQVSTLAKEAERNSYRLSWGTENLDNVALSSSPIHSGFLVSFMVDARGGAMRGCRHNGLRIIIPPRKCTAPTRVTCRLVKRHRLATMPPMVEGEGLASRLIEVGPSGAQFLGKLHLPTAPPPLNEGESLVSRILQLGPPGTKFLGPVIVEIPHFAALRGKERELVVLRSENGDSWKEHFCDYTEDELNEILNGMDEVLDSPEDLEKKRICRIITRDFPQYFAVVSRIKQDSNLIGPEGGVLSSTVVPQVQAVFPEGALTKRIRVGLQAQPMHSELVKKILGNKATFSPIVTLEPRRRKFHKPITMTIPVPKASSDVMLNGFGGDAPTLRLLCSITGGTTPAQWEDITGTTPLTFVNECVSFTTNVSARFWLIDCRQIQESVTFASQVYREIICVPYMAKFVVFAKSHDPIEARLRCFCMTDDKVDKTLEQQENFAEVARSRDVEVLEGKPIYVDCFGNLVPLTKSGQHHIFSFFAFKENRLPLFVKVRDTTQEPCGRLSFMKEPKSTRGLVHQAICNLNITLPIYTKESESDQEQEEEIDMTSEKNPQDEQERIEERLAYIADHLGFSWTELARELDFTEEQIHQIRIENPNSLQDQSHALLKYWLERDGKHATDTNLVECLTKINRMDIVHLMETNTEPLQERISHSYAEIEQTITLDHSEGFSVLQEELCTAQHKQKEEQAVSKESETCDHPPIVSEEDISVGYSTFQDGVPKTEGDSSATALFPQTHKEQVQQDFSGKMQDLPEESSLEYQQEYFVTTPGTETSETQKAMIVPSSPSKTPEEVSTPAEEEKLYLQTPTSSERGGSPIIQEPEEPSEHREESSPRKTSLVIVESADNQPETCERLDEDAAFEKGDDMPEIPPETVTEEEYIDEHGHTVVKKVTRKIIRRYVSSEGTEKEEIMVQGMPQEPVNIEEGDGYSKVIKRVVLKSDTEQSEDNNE

Results are given in words; binding and its absence hold for the method and conditions named. Some binding calls cover weakened binding; strength is not graded here.

This assay deals with myc-L1-CAM (myc-tagged rat L1-CAM variant expressed from pMyc-L1-CAM) (rat (variant of rat L1-CAM)) (UniProt Q05695). The experiment in a line: membrane recruitment / co-localization by confocal immunofluorescence in transfected 293 cells.

For “ankyrinB (endogenous in human kidney 293 cells) (from UniProt Q01484 1-1872)”, the binding result is “binds”.
